In the supplement of paper PMC7877785:
± gives the uncertainty stated by the source. The uncertainty is large for many entries.

Test: self-splicing fitness, log relative to wild type (ln ratio); higher = more splicing; Tetrahymena group I intron in knt gene, E. coli kanamycin selection, DiMSum; sequences stand for … in CUCUCU…GGAGGGAAAAGUUAUCAGGCAUGCACCUGGUAGCUAGUCUUUAAACCAAUAGAUUGCAUCGGUUUAAAAGGCAAGACCGUCAAAUUGCGGGAAAGGGGUCAACAGCCGUUCAGUACCAAGUCUCAGGGGAAACUUUGAGAUGGCCUUGCAAAGGGUAUGGUAAUAAGCUGACGGACAUGGUCCUAACCACGCAGCCAAGUCCUAAGUCAACAGAUCUUCUGUUGAUAUGGAUGCAGUUCACAGACUAAAUGUCGGUCGGGGAAGAUGUAUUCUUCUCAUAAGAUAUAGUCGGACCUCUCCUUAAUGGGAGCUAGCGGAUGAAGUGAUGCAACACUGGAGCCGCUGGGAACUAAUUUGUAUGCGAAAGUAUAUUGAUUAGUUUUGGAGUACUCGUGGUCG
How it was run: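 Library with all eight P1ex-region intron nucleotides randomised, intron inside the knt kanamycin-resistance gene on pET-22b(+), in E. coli BL21(DE3). Cells grew overnight at 37°C or 30°C on LB agar with or without 25 μg/mL kanamycin (plus 100 μg/mL carbenicillin, 50 μM IPTG, 0.2% rhamnose), in six replicate transformations. Pooled colonies were amplicon-sequenced on Illumina HiSeq 2500. DiMSum fitness is the error-weighted combination of wild-type-normalised replicate fold changes, kanamycin versus none.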

Row | Sequence | self-splicing fitness (ln) (37 °C) | self-splicing fitness (ln) (30 °C)
1 | CCAUAGCAAUAUUACGGCCU | -3.02 ± 0.53 | 
2 | CGUGAGCAAUAUUACGCGUA |  | -1.81 ± 0.6
3 | CCAGAGCAAUAUUACGGAGC | -4.51 ± 0.59 | 
4 | UCUUAGCAAUAUUACGAGAC | -2.85 ± 0.54 | 
5 | CAUGAGCAAUAUUACGAAUC |  | -4.04 ± 0.51
6 | AGAGAGCAAUAUUACGUGCU |  | -4.39 ± 0.51
7 | CCGGAGCAAUAUUACGUUGA |  | -4.63 ± 0.71
8 | CCAGAGCAAUAUUACGAUCA |  | -4.41 ± 0.52
9 | AGCAAGCAAUAUUACGCUGC | -3.1 ± 0.31 | -1.58 ± 0.2
10 | AUUUAGCAAUAUUACGAGUC | -2.01 ± 0.64 | -3.56 ± 0.73
11 | CCUCAGCAAUAUUACGUCGC |  | -3.88 ± 0.52
12 | UUUUAGCAAUAUUACGGCAU | -0.972 ± 0.29 | -2.8 ± 0.41
13 | CGGGAGCAAUAUUACGAUUC | -1.39 ± 0.88 | -1.27 ± 1.4
14 | UCGGAGCAAUAUUACGCUCA | -3.99 ± 1 | -4 ± 1
15 | AUAUAGCAAUAUUACGAAUC | -2.87 ± 0.53 | -3.63 ± 0.55
16 | UGGGAGCAAUAUUACGACAU | -2.9 ± 0.05 | -3.84 ± 0.039
17 | AUUGAGCAAUAUUACGACAC | -1.45 ± 0.22 | -2.36 ± 0.19
18 | CGCGAGCAAUAUUACGUCAA | -2.31 ± 0.5 | 
19 | GCGGAGCAAUAUUACGCCUG | -2.19 ± 0.56 | 
20 | CUGUAGCAAUAUUACGAAAC | -3.74 ± 1 | 
21 | CCUCAGCAAUAUUACGGGCA |  | -4.2 ± 0.59
22 | GUCGAGCAAUAUUACGCCGG |  | -4.11 ± 0.52
23 | GGCGAGCAAUAUUACGAGGG | -2.23 ± 0.56 | 
24 | GAAGAGCAAUAUUACGCAUC | -1.49 ± 0.56 | -3.6 ± 0.75

Row | Sequence | self-splicing fitness (ln) (37 °C) | self-splicing fitness (ln) (30 °C)
25 | AUCCAGCAAUAUUACGUGAA | -0.212 ± 0.072 | -0.631 ± 0.049
26 | CUAAAGCAAUAUUACGCUUC | -2.51 ± 0.54 | 
27 | UGCAAGCAAUAUUACGAAAC |  | -4.13 ± 0.51
28 | UUGGAGCAAUAUUACGGCUG | -1.35 ± 0.57 | 
29 | GCCUAGCAAUAUUACGGCCA | -1.52 ± 0.35 | -1.81 ± 0.33
30 | UCUGAGCAAUAUUACGACGC | -0.44 ± 1 | -1.34 ± 0.63
31 | UUGGAGCAAUAUUACGAGCC | -1.07 ± 0.5 | -3.03 ± 0.77
32 | ACGGAGCAAUAUUACGAGAA | -2.73 ± 0.54 | -3.26 ± 1
33 | CUCGAGCAAUAUUACGGAUA | -3.68 ± 0.46 | -2.79 ± 0.28
34 | GCAUAGCAAUAUUACGCCAC | -2.94 ± 0.53 | 
35 | AGUGAGCAAUAUUACGCUAA |  | -4.02 ± 0.61
36 | UCUUAGCAAUAUUACGAAAA |  | -2.91 ± 0.57
37 | AGUCAGCAAUAUUACGGGUC | -1.43 ± 0.15 | -1.27 ± 0.11
38 | UACGAGCAAUAUUACGUGCC | -2.98 ± 1.1 | 
39 | UAGUAGCAAUAUUACGUAUC | -2.76 ± 1.1 | -4.73 ± 1
40 | CGAAAGCAAUAUUACGAACA | -0.112 ± 0.12 | -1.92 ± 0.13
41 | GCGCAGCAAUAUUACGCCAA |  | -0.455 ± 0.91
42 | AACUAGCAAUAUUACGCUUU | -1.71 ± 0.12 | -2.44 ± 0.097
43 | AGGGAGCAAUAUUACGUAGC | -2.52 ± 1.1 | 
44 | UGGGAGCAAUAUUACGAAGG |  | -3.55 ± 0.74
45 | UUCAAGCAAUAUUACGGAAU |  | -5.35 ± 0.51
46 | GUUGAGCAAUAUUACGGUGA |  | -3.5 ± 0.61
47 | AGUGAGCAAUAUUACGCUGA | -3.18 ± 1 | -3.8 ± 0.6
48 | UCACAGCAAUAUUACGAUUC | -3.05 ± 0.18 | -3.61 ± 0.16

Row | Sequence | self-splicing fitness (ln) (37 °C) | self-splicing fitness (ln) (30 °C)
49 | GAUCAGCAAUAUUACGGGGG | -2.51 ± 0.18 | -3.25 ± 0.18
50 | GUUGAGCAAUAUUACGAGUA |  | -3.39 ± 1
51 | UCUCAGCAAUAUUACGCGCA | -0.617 ± 0.18 | -0.638 ± 0.16
52 | AUUUAGCAAUAUUACGAGAC | -1.02 ± 0.55 | 
53 | AUAAAGCAAUAUUACGGCUG | 0.483 ± 0.1 | 0.334 ± 0.069
54 | CUGGAGCAAUAUUACGAACC |  | -3.63 ± 0.73
55 | UUCUAGCAAUAUUACGAACC |  | -2.47 ± 0.78
56 | AGGGAGCAAUAUUACGACCC | -1.52 ± 0.59 | 
57 | CUUUAGCAAUAUUACGUGCU |  | -3.03 ± 0.5
58 | GCUCAGCAAUAUUACGCCCG |  | -1.62 ± 0.55
59 | GAAUAGCAAUAUUACGGCCC | 0.174 ± 0.21 | -0.303 ± 0.14
60 | AAUCAGCAAUAUUACGGUGA | 0.345 ± 0.087 | -0.138 ± 0.076
61 | AAAGAGCAAUAUUACGCUAC |  | -2.33 ± 0.64
62 | CGCCAGCAAUAUUACGAUCC | -2.89 ± 1.1 | 
63 | UUAUAGCAAUAUUACGGGCC | -1.82 ± 0.69 | -2.25 ± 1.1
64 | GUUUAGCAAUAUUACGGUGG |  | -4.14 ± 0.51
65 | GGUGAGCAAUAUUACGGAAA | -1.71 ± 0.53 | 
66 | ACCAAGCAAUAUUACGAAGA | -1.56 ± 0.14 | -4.11 ± 0.24
67 | CUUGAGCAAUAUUACGACUA | -1.43 ± 0.61 | 
68 | UACGAGCAAUAUUACGCUAC | -1.18 ± 0.92 | -3.18 ± 0.5
69 | CAGAAGCAAUAUUACGUAAA | -1.73 ± 0.16 | -4.01 ± 0.31
70 | GAUUAGCAAUAUUACGCCCG | -0.635 ± 0.57 | 
71 | GUUGAGCAAUAUUACGCGCU | 0.0117 ± 1.2 | -3.7 ± 0.78
72 | GUUUAGCAAUAUUACGCUAG | -0.42 ± 0.13 | -2.38 ± 0.16

Row | Sequence | self-splicing fitness (ln) (37 °C) | self-splicing fitness (ln) (30 °C)
73 | GCGGAGCAAUAUUACGUCUC |  | -4.74 ± 0.73
74 | CUUAAGCAAUAUUACGCUUC | -2.9 ± 1.1 | 
75 | CUACAGCAAUAUUACGUCUA | -3.04 ± 0.33 | -3.21 ± 0.24
76 | GCGCAGCAAUAUUACGACUC | 0.304 ± 0.15 | -0.32 ± 0.17
77 | GCGAAGCAAUAUUACGUUGC |  | -3.67 ± 0.52
78 | GGCGAGCAAUAUUACGUAGC | -2.05 ± 1.1 | -1.61 ± 0.54
79 | GCGAAGCAAUAUUACGCGUC |  | -5.74 ± 0.71
80 | CGCAAGCAAUAUUACGUAGU | -2.75 ± 0.098 | -3.1 ± 0.097
81 | CUAGAGCAAUAUUACGGUCC | -2.44 ± 0.63 | -3.36 ± 0.61
82 | UGUUAGCAAUAUUACGUAUU |  | -3.88 ± 0.73
83 | UUAUAGCAAUAUUACGCGGC | -2.4 ± 0.37 | -2.42 ± 0.49
84 | UCUGAGCAAUAUUACGGACA | -2.63 ± 0.76 | -2.91 ± 0.76
85 | GAAUAGCAAUAUUACGGGAG |  | -3.25 ± 0.52
86 | GCCGAGCAAUAUUACGCCCC | -0.356 ± 0.61 | 
87 | AUCGAGCAAUAUUACGCAUA |  | -1.23 ± 0.53
88 | UCGGAGCAAUAUUACGUCCC | -2.2 ± 1.1 | 
89 | GCUUAGCAAUAUUACGGGCC |  | -3.36 ± 0.64
90 | CCGCAGCAAUAUUACGGACC | -1.79 ± 0.61 | 
91 | UAGGAGCAAUAUUACGAACC | -1.93 ± 0.66 | 
92 | CGUAAGCAAUAUUACGUUCC | -1.98 ± 1.1 | 
93 | CAUGAGCAAUAUUACGUUUC | -3.56 ± 0.6 | 
94 | CUGUAGCAAUAUUACGUGAA |  | -5.2 ± 1
95 | CAUAAGCAAUAUUACGCAGC | -2.17 ± 0.55 | 
96 | UGUCAGCAAUAUUACGUGUC |  | -5.42 ± 1

Pulled one by one from the entries so far (three):
Row | Sequence | self-splicing fitness (ln) (37 °C) | self-splicing fitness (ln) (30 °C)
94 | CUGUAGCAAUAUUACGUGAA |  | -5.2 ± 1
81 | CUAGAGCAAUAUUACGGUCC | -2.44 ± 0.63 | -3.36 ± 0.61
87 | AUCGAGCAAUAUUACGCAUA |  | -1.23 ± 0.53

The list goes on:

Row | Sequence | self-splicing fitness (ln) (37 °C) | self-splicing fitness (ln) (30 °C)
97 | CCGUAGCAAUAUUACGCACC | -2.21 ± 0.37 | -5.17 ± 1
98 | ACUUAGCAAUAUUACGUUCG | -0.802 ± 0.18 | -1.52 ± 0.18
99 | GAAUAGCAAUAUUACGUACU | -0.151 ± 0.12 | -0.732 ± 0.11
100 | GUCAAGCAAUAUUACGUGGA | -1.58 ± 0.12 | -2.86 ± 0.17
101 | UACGAGCAAUAUUACGGACU | -3.03 ± 0.6 | 
102 | UUCGAGCAAUAUUACGAUGC | -1.54 ± 0.71 | 
103 | CCCCAGCAAUAUUACGAAUU | -1.59 ± 0.36 | -3.01 ± 0.23
104 | UAUGAGCAAUAUUACGCCUC |  | -3.38 ± 0.75
105 | CACGAGCAAUAUUACGAACC |  | -3.46 ± 1.1
106 | CUCGAGCAAUAUUACGCCUA |  | -3.63 ± 0.6
107 | GCCUAGCAAUAUUACGCUGC |  | -4.85 ± 0.58
108 | CGAAAGCAAUAUUACGAGAC |  | -3.88 ± 0.51
109 | UACCAGCAAUAUUACGGUGC | -2.64 ± 0.2 | -3.21 ± 0.12
110 | UUAUAGCAAUAUUACGCCCU | -1.13 ± 1.2 | -1.32 ± 1.4
111 | GUUGAGCAAUAUUACGGAGG | -1.36 ± 0.51 | -3.94 ± 0.73
112 | UCGUAGCAAUAUUACGGAUG |  | -2.36 ± 0.78
113 | UUGGAGCAAUAUUACGAGCA | -1.74 ± 0.31 | -3.18 ± 0.37
114 | CCACAGCAAUAUUACGGCCC | -2.05 ± 0.51 | 
115 | GCAGAGCAAUAUUACGCCGA |  | -3.64 ± 0.63
116 | UCACAGCAAUAUUACGCCAC |  | -4.87 ± 1
117 | GUAGAGCAAUAUUACGACUG | -1.12 ± 0.24 | -1.22 ± 0.15
118 | CUUCAGCAAUAUUACGGCCU |  | -3.51 ± 0.6
119 | CCGAAGCAAUAUUACGACUC | -3.61 ± 0.52 | 

Part of the list above, in markdown.

| Row | Sequence | self-splicing fitness (ln) (37 °C) | self-splicing fitness (ln) (30 °C) |
| --- | --- | --- | --- |
| 60 | AAUCAGCAAUAUUACGGUGA | 0.345 ± 0.087 | -0.138 ± 0.076 |
| 61 | AAAGAGCAAUAUUACGCUAC |  | -2.33 ± 0.64 |
| 62 | CGCCAGCAAUAUUACGAUCC | -2.89 ± 1.1 |  |
| 63 | UUAUAGCAAUAUUACGGGCC | -1.82 ± 0.69 | -2.25 ± 1.1 |
| 64 | GUUUAGCAAUAUUACGGUGG |  | -4.14 ± 0.51 |
